Laboratory results reported in PubChem BioAssay AID1487 (National Center for Advancing Translational Sciences (NCATS), 2009).
Some of the results follow. The main result of the screen is listed elsewhere. These columns were measured beside it and carry no call. Most of these compounds were active or inconclusive in the main read-out, so they are no random draw. The note in brackets gives the kind of curve behind each potency; many fits are weak.

Assay: qHTS Assay for Modulators of Lamin A Splicing
Conditions: HeLa LMNA splicing GFP/RFP minigene ratio, 48 h
How it was run: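 S3 HeLa cells stably expressing lamin A-EGFP splicing minigene plus DsRed2, 600 cells/well, 48 h compound exposure at 37C. Laser-scanning cytometry; analysed as GFP (500-530 nm)/RFP (575-640 nm) total intensity ratio; 0.5% DMSO vehicle.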

[1] = measured here: RFP viability control channel
[2] = measured here: GFP splicing reporter channel

Row | SMILES | AC50 [1] | AC50 [2]
1 | FC(F)(F)c1cccc(Cn2cnc(NC(=S)NCCc3ccccc3)n2)c1 | 0.794 µM [falling, full curve, poor fit] | 
2 | COc1ccc(/C=N/NC(=O)CCSc2nc3ccccc3s2)cc1 | 1.58 µM [rising, full curve, poor fit] | 
3 | O=C(NNC(=S)NCc1ccccc1)c1ccc(Br)o1 |  | 20 µM [rising, partial curve, poor fit]
4 | O=C(CN1CCN(c2ccccn2)CC1)Nc1cccc(C(F)(F)F)c1 | 2.82 µM [rising, full curve] | 
5 | Cc1cc(-c2cccs2)c2c(N)c(C(=O)c3ccc4c(c3)OCO4)sc2n1 | 35.5 µM [rising, single point] | 
6 | O=C(CSc1ccccc1)Nc1ccncc1 | 14.1 µM [rising, partial curve] | 
7 | Clc1ccc(OCCn2cnc3ccccc32)c(Cl)c1 | 31.6 µM [rising, single point] | 22.4 µM [rising, single point]
8 | C/C(=N\NC(N)=O)c1ccccc1 | 0.0112 µM [rising, full curve, poor fit] | 0.0141 µM [rising, full curve, poor fit]
9 | O=C1CCc2ccc(NS(=O)(=O)c3ccc(F)cc3)cc2N1 | 0.02 µM [falling, full curve, poor fit] | 
10 | N#Cc1ccc(OCC(=O)NCC2(N3CCCCC3)CCCCC2)cc1 | 0.562 µM [rising, full curve] | 0.562 µM [rising, full curve]
11 | O=[N+]([O-])c1nn(-c2ccc3c(c2)OCCO3)n(O)c1=NC1CCCCCC1 | 35.5 µM [rising, single point] | 35.5 µM [rising, single point]
12 | COC(=O)c1sccc1NC(=S)Nc1ccc(F)cc1 | 5.01 µM [falling, partial curve, poor fit] | 5.01 µM [falling, partial curve, poor fit]
13 | Cc1ccc(NC(=O)c2ccc(OC(F)(F)F)cc2)cc1S(=O)(=O)N(C)C | 6.31 µM [rising, partial curve] | 
14 | Cc1cccc(NC(=O)/C=C/c2ccc([N+](=O)[O-])s2)c1 | 10 µM [falling, partial curve] | 17.8 µM [falling, single point]
15 | N[C@@H](CCCC(=O)O)C(=O)O | 5.62 µM [falling, single point] | 0.126 µM [rising, full curve, poor fit]
16 | COc1ccccc1-n1c2nc3ccccc3nc2c2c(=O)n(-c3cc(C)cc(C)c3)cnc21 | 0.501 µM [rising, full curve] | 
17 | COc1cc(OC)c(C2C=C(c3ccc(C)cc3)Nc3c(C(=O)Nc4ccccc4)cnn32)cc1OC (stereo not given) | 20 µM [rising, partial curve, poor fit] | 0.355 µM [rising, partial curve]

Two entries from above in a different format.

| Row | SMILES | AC50 [1] | AC50 [2] |
| --- | --- | --- | --- |
| 3 | O=C(NNC(=S)NCc1ccccc1)c1ccc(Br)o1 |  | 20 µM [rising, partial curve, poor fit] |
| 4 | O=C(CN1CCN(c2ccccn2)CC1)Nc1cccc(C(F)(F)F)c1 | 2.82 µM [rising, full curve] |  |

Next structures:

Row | SMILES | AC50 [1] | AC50 [2]
18 | CCN(CC)c1ccc(N=Nc2ncn[nH]2)cc1 | 0.0708 µM [falling, full curve, poor fit] | 
19 | Cc1cc(O)c(C(c2ccccc2Cl)N2CCCCC2)c(=O)n1Cc1ccco1 (stereo not given) | 2.82 µM [rising, full curve, poor fit] | 1.41 µM [rising, full curve, poor fit]
20 | COC(=O)C1=C(C)NC(=O)NC1c1cn(-c2ccccc2)nc1-c1ccc(OC)c(Cl)c1 (stereo not given) | 5.01 µM [rising, partial curve, poor fit] | 0.0224 µM [rising, full curve, poor fit]
21 | C/C(=N\NC(=O)c1ccc(Cn2cc(Br)cn2)o1)c1cccc(NC(=O)C(C)C)c1 | 35.5 µM [rising, single point] | 
22 | N#Cc1ccccc1Sc1ccccc1C(=O)Nc1ccccc1 | 3.16 µM [falling, partial curve] | 
23 | CCOC(=O)C(=O)N(Nc1ccccc1C)c1ccccc1C | 10 µM [falling, partial curve, poor fit] | 
24 | O=C(/C=C/c1ccccc1)c1ccc2c3c(cccc13)CC2 | 14.1 µM [falling, single point] | 14.1 µM [falling, single point]
25 | O=C(COC(=O)c1ccccc1Nc1ccc(SC(F)F)cc1)NCc1ccco1 |  | 7.94 µM [falling, partial curve]
26 | C=CCNC(=O)Nc1ccc(F)cc1F |  | 15.8 µM [falling, partial curve, poor fit]
27 | CC(C)(C)c1ccc(/C=N/OCC(=O)NCc2ccc(F)cc2)cc1 | 35.5 µM [rising, single point] | 35.5 µM [rising, single point]
28 | Cc1cccc(N2CCN(C(=O)c3cn(C)c(=O)c4c3c3ccccc3n4C)CC2)c1C | 17.8 µM [rising, partial curve] | 17.8 µM [rising, single point]
29 | CCOc1ccccc1NS(=O)(=O)c1c(C(=O)OC)sc2cccc(F)c12 |  | 0.631 µM [falling, partial curve, poor fit]
30 | CC(C)OC(=O)C(C(=O)C(F)(F)F)c1cc(NS(=O)(=O)c2ccc3ccccc3c2)c2ccccc2c1O (stereo not given) | 35.5 µM [falling, partial curve, poor fit] | 35.5 µM [falling, partial curve]
31 | COc1cccc(-c2nc(SC(C(C)=O)C(=O)N(C)C)c3c(=O)n(C)c(=O)n(C)c3n2)c1 (stereo not given) |  | 0.398 µM [rising, single point]
32 | Cn1cc(C(=O)Nc2ccc(Cl)cc2)c(C(F)(F)F)n1 | 0.0224 µM [falling, full curve, poor fit] | 0.0224 µM [falling, partial curve, poor fit]
33 | COc1ccc(-n2c(=O)c3c(C)c(C)sc3n(Cc3ccc(F)cc3)c2=O)c(OC)c1 | 0.01 µM [falling, full curve, poor fit] | 
34 | Cc1ccc(-c2ccc(/C=C3/NC(=O)NC3=O)o2)cc1[N+](=O)[O-] | 12.6 µM [rising, partial curve] | 2.82 µM [rising, full curve, poor fit]
